# Laboratory results published in patent publication US9889125B2 (TAKEDA PHARMACEUTICALS U.S.A., INC., priority 2011, dated 2018).
# For part of these data: At least one compound was matched to its structure with a doubt left. Some entries share one result that the patent states for a list of compounds.
# Columns and labels:
# Format in all cases: in vivo, human
# [1] = system: P2Y12 platelet reactivity; assay: Platelet function test: VerifyNow, P2Y12 platelet reactivity unit (PRU)
# From the text: (§1) ANOVA models with sequence, subject within sequence, period and regimen were fitted to the pharmacodynamic parameters.
# [2] = system: platelet aggregation with ADP; assay: Platelet function test: Aggregometry with adenosine diphosphate (ADP), maximum platelet aggregation (MPA)
# From the text: as §1
# [3] = system: platelet function (Vasodilator-stimulated phosphoprotein, VASP); assay: Platelet function test: Vasodilator-stimulated phosphoprotein (VASP), platelet reactivity index (PRI)
# From the text: as §1
# [4] = clopidogrel with omeprazole 80 mg vs clopidogrel alone
structure (smiles),measurement,setting,value
Cc1c(OCC(F)(F)F)ccnc1C[S@@+]([O-])c1nc2ccccc2[nH]1 [Dexlansoprazole],increase in PRU compared with clopidogrel alone,[1]; clopidogrel coadministered with dexlansoprazole 60 mg,< 20 units
same,mean difference in MPA compared with clopidogrel alone,[2]; clopidogrel with dexlansoprazole 60 mg,not more than 5%
COc1ccc2nc([S@@+]([O-])Cc3ncc(C)c(OC)c3C)[nH]c2c1 [Esomeprazole],increase in PRU compared with clopidogrel alone,[1]; clopidogrel coadministered with esomeprazole 40 mg,> 50 units
same,increase in mean PRI,[3]; clopidogrel with esomeprazole 40 mg vs clopidogrel alone,more than 11%
Cc1c(OCC(F)(F)F)ccnc1C[S+]([O-])c1nc2ccccc2[nH]1 (stereo not drawn) [Lansoprazole],increase in PRU compared with clopidogrel alone,[1]; clopidogrel coadministered with lansoprazole 30 mg,< 20 units
same,mean difference in MPA compared with clopidogrel alone,[2]; clopidogrel with lansoprazole 30 mg,not more than 5%
COc1ccc2[nH]c([S+]([O-])Cc3ncc(C)c(OC)c3C)nc2c1 (stereo not drawn) [Omeprazole],increase in PRU compared with clopidogrel alone,[1]; clopidogrel coadministered with omeprazole 80 mg,> 50 units
same,effect on clopidogrel PD in terms of PRI (90% CI of LS-Mean difference against 15% boundary),[3]; [4],effect of omeprazole 80 mg on clopidogrel PD was confirmed
same,increase in mean PRI,[3]; [4],more than 11%
